Test results reported in US20100272709A1 (GENERAL HOSPITAL, published 2010).
Changes are numbered by the printed parent chain. Numbers in names are those of the source. No constants are given. Whether binding was seen depends on the method and setting. Some binding calls cover weakened binding; strength is not graded here. Where a sequence is shown, tags or fusion partners need not be part of it. Each block holds one binder with its values, some of them ahead of it.

Target: T1, EYFP-dynamin wild type fusion (UniProt Q05193 1-864)
T1 construct: also called YFP-WT; EYFP-dynWT; not shown: EYFP tag
T1 sequence (looked up): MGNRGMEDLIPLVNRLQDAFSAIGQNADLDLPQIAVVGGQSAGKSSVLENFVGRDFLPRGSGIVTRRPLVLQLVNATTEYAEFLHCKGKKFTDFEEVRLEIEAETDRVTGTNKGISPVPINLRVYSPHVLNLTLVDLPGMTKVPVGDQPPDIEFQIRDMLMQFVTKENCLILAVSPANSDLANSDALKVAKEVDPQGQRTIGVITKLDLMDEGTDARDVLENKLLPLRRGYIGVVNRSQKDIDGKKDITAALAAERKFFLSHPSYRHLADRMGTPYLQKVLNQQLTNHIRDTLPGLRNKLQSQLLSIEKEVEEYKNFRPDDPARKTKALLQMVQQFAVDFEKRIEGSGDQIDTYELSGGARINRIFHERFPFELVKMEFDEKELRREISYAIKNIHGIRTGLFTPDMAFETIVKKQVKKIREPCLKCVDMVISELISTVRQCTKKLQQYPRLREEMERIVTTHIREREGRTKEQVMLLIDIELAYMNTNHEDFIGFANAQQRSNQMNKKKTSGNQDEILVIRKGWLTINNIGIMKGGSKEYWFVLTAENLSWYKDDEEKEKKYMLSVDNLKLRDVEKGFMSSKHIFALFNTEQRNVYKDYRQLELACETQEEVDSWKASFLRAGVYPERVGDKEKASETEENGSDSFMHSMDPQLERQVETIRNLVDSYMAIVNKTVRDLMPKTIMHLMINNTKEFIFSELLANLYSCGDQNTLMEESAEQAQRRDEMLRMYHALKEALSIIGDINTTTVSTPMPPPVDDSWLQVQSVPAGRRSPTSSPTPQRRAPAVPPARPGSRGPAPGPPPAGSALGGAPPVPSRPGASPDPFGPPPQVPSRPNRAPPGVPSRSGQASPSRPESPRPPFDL
Assay: FLIM/FRET in live COS cells

binding: binds
B1: ECFP-dynamin wild type fusion (protein, UniProt Q05193 1-864, looked up, not shown: large carriers)
chain: T1 sequence (looked up)

binding: binds
B2: ECFP-dynI690K fusion (other, UniProt Q05193 1-864, looked up)
chain: T1 sequence (looked up) with I690K
notes: it is read as I690K; also called CFP-1690K; not shown: ECFP tag
